Data source: PubChem BioAssay AID652272 (Drosophila RNAi Screening Center, 2013)
The deposit covers about 21,000 reagents; below is a random part of those that have a named target and a result. Of all reagents, 503 (2.4%) are marked active. 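Raw plate light values, not normalised; calls rest on replicate z-scores that were not deposited; hits include reporter decreases as well as increases.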 The numbers tell different reagents against one gene apart. Not stated in the record: the amount of reagent, the time to read-out.

Aim: 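Genes whose knock-down decreases or increases Hedgehog reporter output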 (primary screen)
Cells: Drosophila clone 8 (Cl8) cells
Reagents: long dsRNA against Drosophila genes
Measured: 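Plate reader light from a firefly reporter under a ptc promoter fragment that responds to Hedgehog, with Renilla light as transfection reference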
Reading the numbers: firefly Hh reporter signal: higher = more ptc reporter light; Renilla reference signal: higher = more Renilla control light
Call rule: 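Hit when the z-score averaged over two replicates is under -2 or over +3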
Meaning of the calls: active = hit: reporter lowered or raised; inactive = not a hit

predicted target	reagent	firefly Hh reporter signal, replicate 1	firefly Hh reporter signal, replicate 2	firefly Hh reporter signal, replicate 3	Renilla reference signal, replicate 1	Renilla reference signal, replicate 2	call
Gr8a	1	70492	1.46e5		2234	5709	inactive
CG30485	1	76459	74524		1874	5469	inactive
CG30379	1	89928	1.81e5		8411	8432	inactive
Gmd	1	84087	77693		3616	3736	inactive
tHMG2	1	8.18e5	1.61e5		46364	551	inactive
Urod	1	94333	59195		2787	5389	inactive
CG10752	1	89580	61152		4118	1114	inactive
skl	1	1.36e5			4461	3668	inactive
CG2150	1	1.22e5	4.69e5		4216	14978	inactive
Oamb	1	68345	1.75e5		14093	3219	inactive
Oamb	2	5.23e5	86131		35248	7234	inactive
Oamb	3	6.32e5	1.44e5		38953	11978	inactive
Boh1	1	1.27e5	1.45e5		2760	3512	inactive
CG11929	1	70120	51179		1957	4522	inactive
Prosalpha6	1	41707	27911		1767	3718	active
Pld	1	1.72e5	73392		6381	2642	inactive
CG9967	1	98178	4.14e5	62955	3782	23741	inactive
Pal1	1	71760	42665		2820	1735	inactive
bru3	1	7.53e5	2.91e5	1.44e5	7021	5043	inactive
bru3	2	2.27e5			4672		inactive
bru3	3	3.18e5			5728		inactive
bru3	4	1.45e5	1.11e5		5885	3850	inactive
bru3	5	78256	30906	54583	3712	3351	inactive
CG43253 (retired record)	1	2.77e5			6427		inactive
Gpxl	1	68572	58729		1172	4166	inactive
CG14625	1	61938	1.42e5		1794	5493	inactive

Quoted from the listing (3 entries):
predicted target	reagent	firefly Hh reporter signal, replicate 1	firefly Hh reporter signal, replicate 2	firefly Hh reporter signal, replicate 3	Renilla reference signal, replicate 1	Renilla reference signal, replicate 2	call
skl	1	1.36e5			4461	3668	inactive
CG2150	1	1.22e5	4.69e5		4216	14978	inactive
Oamb	1	68345	1.75e5		14093	3219	inactive

Further records:
predicted target	reagent	firefly Hh reporter signal, replicate 1	firefly Hh reporter signal, replicate 2	firefly Hh reporter signal, replicate 3	Renilla reference signal, replicate 1	Renilla reference signal, replicate 2	call
CG33127	1	6.12e5	2.40e5		31385	9325	inactive
Gr39a	1	1.65e5	1.66e5		4258	8147	inactive
Gr39a	2	1.40e5	2.29e5		3523	11147	inactive
CG32631	1	1.44e5	1.22e5		2560	2356	inactive
Ephrin	1	96552	2.16e5		3668	7547	inactive
Mgat1	1	79702	35315		2448	2787	inactive
form3	1	70413	63245		5429	5210	inactive
form3	2	1.03e5	73046		4850	3624	inactive
form3	3	51376	80600		3533	5709	inactive
tst	1	83778	60482		3186	2074	inactive
slbo	1	1.32e5	80381		3981	7340	inactive
Tango10	1	2.18e5	1.26e5		4232	3248	inactive
Ugt35D1	1	85448	4.16e5		1349	14480	inactive
